Data taken from patent publication US20060094700A1, “Heat sterilization of a steroid in the presence of phosphate” (priority 2004, published 2006).
At least one structure is not confirmed: it was looked up by name or label, or the drawing left a doubt.

Tests used:
[1] = suspension in NaCl-saturated water with polysorbate, autoclaved at 121° 20-30 min; cited from earlier work
[2] = Particle size and content uniformity of the triamcinolone acetonide hyaluronate gel suspension; type: physicochemical; conditions: steroid autoclaved with sodium chloride and phosphate buffer salts

Row | SMILES | change of crystal particle size after autoclaving [1] | particle size (mean diameter) [2]
1 | CC(=O)OCC(=O)[C@@]1(O)[C@H](C)C[C@H]2[C@@H]3CCC4=CC(=O)C=C[C@]4(C)[C@@]3(F)[C@@H](O)C[C@@]21C [I, dexamethasone acetate] | no change of particle size | –
2 | CC1(C)O[C@@H]2C[C@H]3[C@@H]4CCC5=CC(=O)C=C[C@]5(C)[C@@]4(F)[C@@H](O)C[C@]3(C)[C@]2(C(=O)CO)O1 [triamcinolone acetonide] | – | about 5 μm
